{"source": "PubChem BioAssay AID1224830, NIAID, 2016", "screen": "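Regulators of TLR4 signalling towards TNF-alpha in macrophage-like cells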 (primary screen)", "cells": "human THP-1 monocytic leukaemia cells, TNF dual-luciferase reporter clone, PMA-differentiated to macrophage-like cells", "knock-down reagent": "siRNA pool against human genes, 50 nM", "duration": "LPS for 4 h, given about 3 days after siRNA transfection", "conditions": "bacterial LPS (TLR4 ligand), 10 ng/ml", "measured": "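Ratio of firefly to renilla light, scaled to the plate median and expressed as a robust z-score per replicate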", "reading the numbers": "TNF reporter robust z-score: higher = stronger TNF reporter response to LPS", "call rule": "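Each well counts as active if its z-score is over 2.8 or under -1.5; controls are left without a call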", "note": "Shown is one part, drawn at random, of about 18,000 reagents. Over the whole deposit, about 2,900 (16%) got an active call. 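Calls are made per well; low scores hint the gene aids the LPS response, high scores that it dampens it.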 Repeated entries: four replicate wells of each siRNA pool."}
{"gene symbol":"AGL","TNF reporter robust z-score":0.18,"Call":"inactive"}
{"gene symbol":"AGL","TNF reporter robust z-score":1.5,"Call":"inactive"}
{"gene symbol":"AGL","TNF reporter robust z-score":-1.17,"Call":"inactive"}
{"gene symbol":"AGL","TNF reporter robust z-score":1.52,"Call":"inactive"}
{"gene symbol":"NBN","TNF reporter robust z-score":-1.14,"Call":"inactive"}
{"gene symbol":"NBN","TNF reporter robust z-score":0.1,"Call":"inactive"}
{"gene symbol":"NBN","TNF reporter robust z-score":0.01,"Call":"inactive"}
{"gene symbol":"NBN","TNF reporter robust z-score":-0.78,"Call":"inactive"}
{"gene symbol":"IFNL1","TNF reporter robust z-score":-0.32,"Call":"inactive"}
{"gene symbol":"IFNL1","TNF reporter robust z-score":0.09,"Call":"inactive"}
{"gene symbol":"IFNL1","TNF reporter robust z-score":0.74,"Call":"inactive"}
{"gene symbol":"IFNL1","TNF reporter robust z-score":0.22,"Call":"inactive"}
{"gene symbol":"PSD2","TNF reporter robust z-score":0.77,"Call":"inactive"}
{"gene symbol":"PSD2","TNF reporter robust z-score":1.09,"Call":"inactive"}
{"gene symbol":"PSD2","TNF reporter robust z-score":0.12,"Call":"inactive"}
{"gene symbol":"PSD2","TNF reporter robust z-score":0.39,"Call":"inactive"}
{"gene symbol":"RHD","TNF reporter robust z-score":0,"Call":"inactive"}
{"gene symbol":"RHD","TNF reporter robust z-score":0.23,"Call":"inactive"}
{"gene symbol":"RHD","TNF reporter robust z-score":1.17,"Call":"inactive"}
{"gene symbol":"RHD","TNF reporter robust z-score":0.28,"Call":"inactive"}
{"gene symbol":"SAFB","TNF reporter robust z-score":-1.48,"Call":"inactive"}
{"gene symbol":"SAFB","TNF reporter robust z-score":-0.51,"Call":"inactive"}
{"gene symbol":"SAFB","TNF reporter robust z-score":-1.02,"Call":"inactive"}
{"gene symbol":"SAFB","TNF reporter robust z-score":-1.76,"Call":"active"}
{"gene symbol":"CD300LB","TNF reporter robust z-score":-0.81,"Call":"inactive"}
{"gene symbol":"CD300LB","TNF reporter robust z-score":-0.41,"Call":"inactive"}
{"gene symbol":"CD300LB","TNF reporter robust z-score":0.63,"Call":"inactive"}
{"gene symbol":"CD300LB","TNF reporter robust z-score":0.31,"Call":"inactive"}
{"gene symbol":"SLC2A5","TNF reporter robust z-score":-0.07,"Call":"inactive"}
{"gene symbol":"SLC2A5","TNF reporter robust z-score":0.29,"Call":"inactive"}
{"gene symbol":"SLC2A5","TNF reporter robust z-score":-0.17,"Call":"inactive"}
{"gene symbol":"SLC2A5","TNF reporter robust z-score":0.12,"Call":"inactive"}
{"gene symbol":"ZNF684","TNF reporter robust z-score":-0.83,"Call":"inactive"}
{"gene symbol":"ZNF684","TNF reporter robust z-score":-1.65,"Call":"active"}
{"gene symbol":"ZNF684","TNF reporter robust z-score":-1.54,"Call":"active"}
{"gene symbol":"ZNF684","TNF reporter robust z-score":-1.61,"Call":"active"}
{"gene symbol":"OSGIN1","TNF reporter robust z-score":0.42,"Call":"inactive"}
{"gene symbol":"OSGIN1","TNF reporter robust z-score":0.23,"Call":"inactive"}
{"gene symbol":"OSGIN1","TNF reporter robust z-score":-0.89,"Call":"inactive"}
{"gene symbol":"FEZF2","TNF reporter robust z-score":-0.64,"Call":"inactive"}
{"gene symbol":"FEZF2","TNF reporter robust z-score":0.23,"Call":"inactive"}
{"gene symbol":"FEZF2","TNF reporter robust z-score":-0.36,"Call":"inactive"}
{"gene symbol":"FEZF2","TNF reporter robust z-score":0.07,"Call":"inactive"}
{"gene symbol":"SLC67A1","TNF reporter robust z-score":-1.19,"Call":"inactive"}
{"gene symbol":"SLC67A1","TNF reporter robust z-score":-0.55,"Call":"inactive"}
{"gene symbol":"SLC67A1","TNF reporter robust z-score":-1.23,"Call":"inactive"}
{"gene symbol":"SLC67A1","TNF reporter robust z-score":-0.94,"Call":"inactive"}
{"gene symbol":"SPAST","TNF reporter robust z-score":0.63,"Call":"inactive"}
{"gene symbol":"SPAST","TNF reporter robust z-score":1.68,"Call":"inactive"}
{"gene symbol":"SPAST","TNF reporter robust z-score":0.56,"Call":"inactive"}
{"gene symbol":"SPAST","TNF reporter robust z-score":0.92,"Call":"inactive"}
{"gene symbol":"TNFRSF10D","TNF reporter robust z-score":-0.08,"Call":"inactive"}
{"gene symbol":"TNFRSF10D","TNF reporter robust z-score":1,"Call":"inactive"}
{"gene symbol":"TNFRSF10D","TNF reporter robust z-score":0.04,"Call":"inactive"}
{"gene symbol":"TNFRSF10D","TNF reporter robust z-score":1.21,"Call":"inactive"}
{"gene symbol":"RASSF1","TNF reporter robust z-score":1.27,"Call":"inactive"}
{"gene symbol":"RASSF1","TNF reporter robust z-score":2.05,"Call":"inactive"}
{"gene symbol":"RASSF1","TNF reporter robust z-score":0.51,"Call":"inactive"}
{"gene symbol":"RASSF1","TNF reporter robust z-score":2.15,"Call":"inactive"}
{"gene symbol":"MBTPS1","TNF reporter robust z-score":0.79,"Call":"inactive"}
{"gene symbol":"MBTPS1","TNF reporter robust z-score":-0.2,"Call":"inactive"}
{"gene symbol":"MBTPS1","TNF reporter robust z-score":0.63,"Call":"inactive"}
{"gene symbol":"MBTPS1","TNF reporter robust z-score":-1.12,"Call":"inactive"}

Active calls, of those listed so far:
{"gene symbol":"SAFB","TNF reporter robust z-score":-1.76,"Call":"active"}
{"gene symbol":"ZNF684","TNF reporter robust z-score":-1.65,"Call":"active"}
{"gene symbol":"ZNF684","TNF reporter robust z-score":-1.54,"Call":"active"}
{"gene symbol":"ZNF684","TNF reporter robust z-score":-1.61,"Call":"active"}
